The source of these data is article PMC9126595, “Identification of 3-(piperazinylmethyl)benzofuran derivatives as novel type II CDK2 inhibitors: design, synthesis, biological evaluation, and in silico insights” (Journal of Enzyme Inhibition and Medicinal Chemistry, 2022).

The test system of this data set is non-tumorigenic human lung fibroblast MRC-5 cell line. In words: Normal cell cytotoxicity, MRC-5. The data set is classed as cell-based. As to conditions: IC50 in normal lung cell (MRC-5)/IC50 in cancerous lung cells A-549. As to the method: To test the safety of the newly synthesised compounds and their selectivity towards cancer cells, their cytotoxic activity was tested on non-tumorigenic human lung fibroblast MRC-5 cell line.
`O=C(NNC(=S)Nc1ccccc1)c1oc2ccccc2c1CN1CCN(c2ccccc2)CC1` [Compound 9a]: the “SI (safety index)” value was found to be 4.75.
In the case of `COc1cccc(NC(=S)NNC(=O)c2oc3ccccc3c2CN2CCN(c3ccccc3)CC2)c1` [Compound 9b], the “SI (safety index)” value is 3.59.
On to `COc1ccc(NC(=S)NNC(=O)c2oc3ccccc3c2CN2CCN(c3ccccc3)CC2)cc1` [Compound 9c], for which the “SI (safety index)” value was 3.62.
Then `O=C(NNC(=S)Nc1cccc(F)c1)c1oc2ccccc2c1CN1CCN(c2ccccc2)CC1` [Compound 9d], with 4.11; and `O=C(NNC(=S)Nc1ccc(F)cc1)c1oc2ccccc2c1CN1CCN(c2ccccc2)CC1` [Compound 9e], with 9.92.
For `O=C(NNC(=S)Nc1cccc(Cl)c1)c1oc2ccccc2c1CN1CCN(c2ccccc2)CC1` [Compound 9f] the value was 3.08.
Turning to `O=C(NNC(=S)Nc1ccc(Cl)cc1)c1oc2ccccc2c1CN1CCN(c2ccccc2)CC1` [Compound 9g], the “SI (safety index)” value is reported as 3.09.
For `O=C(NNC(=S)Nc1cccc(C(F)(F)F)c1)c1oc2ccccc2c1CN1CCN(c2ccccc2)CC1` [Compound 9h] the value was 16.20.
As to `CC(=O)c1ccc(NC(=S)NNC(=O)c2oc3ccccc3c2CN2CCN(c3ccccc3)CC2)cc1` [Compound 9i], the “SI (safety index)” value amounted to 4.86.
Then `O=C(NN=Cc1ccccc1)c1oc2ccccc2c1CN1CCN(c2ccccc2)CC1` [Compound 13a], with >4.60.
For `COc1cccc(C=NNC(=O)c2oc3ccccc3c2CN2CCN(c3ccccc3)CC2)c1` [Compound 13b] the value was 10.58; for `COc1ccc(C=NNC(=O)c2oc3ccccc3c2CN2CCN(c3ccccc3)CC2)cc1` [Compound 13c], 8.41; for `CC(=NNC(=O)c1oc2ccccc2c1CN1CCN(c2ccccc2)CC1)c1ccccc1` [Compound 15a], 4.59.
For `COc1ccc(C(C)=NNC(=O)c2oc3ccccc3c2CN2CCN(c3ccccc3)CC2)cc1` [Compound 15b] the value was 5.62; for `O=C(NN=C1CCCc2ccccc21)c1oc2ccccc2c1CN1CCN(c2ccccc2)CC1` [Compound 17], 4.82.
